PubChem BioAssay AID1224826 | NIAID – 2016

Assay: 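Knock-downs that raise or lower Tnf reporter signal after endotoxin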 (primary screen)
Cell system: RAW264.7 G9 macrophages from mouse bearing reporters for p65 (GFP) and the Tnf promoter (mCherry)
Reagents: siRNA pool against mouse genes, 100 nM
Time to read-out: 16 h of LPS stimulation, after 2 days of siRNA transfection
Treatment: bacterial lipopolysaccharide (Salmonella minnesota R595), 10 ng/ml
Measured: 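Nuclear mCherry signal of the Tnf promoter reporter measured by imaging after background removal, scaled to each plate median and turned into robust z-scores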
Reading the numbers: Tnf reporter robust z-score: higher = stronger Tnf promoter reporter signal after LPS; Tnf reporter intensity: higher = stronger Tnf promoter reporter signal
Active means: 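Called active when robust z-score is at most -1.3, matching the median of the Tlr4 knock-down control, or over 3; control wells and wells with under 50 cells never active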
Calls: active = Tnf reporter clearly lowered or raised; inactive = no clear change in Tnf reporter
In all, the deposit lists about 17,000 reagents; this is a random part of them. About 1,110 of them (6.6%) count as active. 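Active means lowered or raised reporter signal; replicate intensities are raw and not normalised per plate.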 The numbers tell different reagents against one gene apart.

no.	gene	reagent	Tnf reporter robust z-score	fewer than 50 cells in well	Tnf reporter intensity, replicate 1	Tnf reporter intensity, replicate 2	call
1	Itgb3bp (integrin beta 3 binding protein (beta3-endonexin))	1	0.86	enough cells in well	186	223	inactive
2	Phkg2 (phosphorylase kinase, gamma 2 (testis))	1	0.62	enough cells in well	214	215	inactive
3	Wnt8b (WNT family member 8B)	1	-1.14	enough cells in well	136	147	inactive
4	Impa1 (inositol (myo)-1(or 4)-monophosphatase 1)	1	1.34	enough cells in well	338	225	inactive
5	Map3k14 (mitogen-activated protein kinase kinase kinase 14)	1	-0.09	enough cells in well	186	108	inactive
6	Dlg1 (discs large MAGUK scaffold protein 1)	1	0.08	enough cells in well	212	154	inactive
7	Pramel4 (PRAME like 4)	1	-0.42	enough cells in well	115	107	inactive
8	Pramel4 (PRAME like 4)	2	-0.31	enough cells in well	117	115	inactive
9	9530019H20Rik (RIKEN cDNA 9530019H20 gene)	1	-0.29	enough cells in well	190	142	inactive
10	Lce1d (late cornified envelope 1D)	1	3.74	enough cells in well	245	208	active
11	Smarcad1 (SNF2 related chromatin remodeling ATPase with DExD box 1)	1	0.09	enough cells in well	267	239	inactive
12	Pkd1	1	0.52	enough cells in well	330	191	inactive
13	Toe1 (target of EGR1, member 1 (nuclear))	1		fewer than 50 cells per well; well left out of calls	153	49.7	inactive
14	Trp53inp1	1	-0.05	enough cells in well	236	215	inactive
15	2210409E12Rik (RIKEN cDNA 2210409E12 gene)	1	-1.16	enough cells in well	96.6	38.2	inactive
16	1700010D01Rik (RIKEN cDNA 1700010D01 gene)	1	-0.91	enough cells in well	126	57.1	inactive
17	Dhdh (dihydrodiol dehydrogenase)	1		fewer than 50 cells per well; well left out of calls	201	49.3	inactive
18	Polr2c (polymerase (RNA) II (DNA directed) polypeptide C)	1	1.72	enough cells in well	168	242	inactive
19	Abcc6 (ATP-binding cassette, sub-family C member 6)	1	-1.28	enough cells in well	82.6	97.7	inactive
20	Hoxb3 (homeobox B3)	1	-0.31	enough cells in well	194	186	inactive
21	Efs (embryonal Fyn-associated substrate)	1	-0.97	enough cells in well	167	140	inactive
22	B3gnt3	1	0.95	enough cells in well	195	208	inactive
23	Etfa (electron transferring flavoprotein, alpha polypeptide)	1	-0.11	enough cells in well	246	194	inactive
24	Irgm1 (immunity-related GTPase family M member 1)	1	0.64	enough cells in well	213	174	inactive

4 successive reagents already listed, quoted:
no.	gene	reagent	Tnf reporter robust z-score	fewer than 50 cells in well	Tnf reporter intensity, replicate 1	Tnf reporter intensity, replicate 2	call
7	Pramel4 (PRAME like 4)	1	-0.42	enough cells in well	115	107	inactive
8	Pramel4 (PRAME like 4)	2	-0.31	enough cells in well	117	115	inactive
9	9530019H20Rik (RIKEN cDNA 9530019H20 gene)	1	-0.29	enough cells in well	190	142	inactive
10	Lce1d (late cornified envelope 1D)	1	3.74	enough cells in well	245	208	active
